No constants are given. Whether binding was seen depends on the method and setting. Some entries that bind do so weakly or less than the wild type. Blank lines part the entries; values can stand above or below the binder they belong to.
Biological target: free PSMD2 (in the erythrocyte proteasome preparation) (human (endogenous in erythrocytes)) (UniProt Q13200)
Experiment: native gel or EMSA

Protein sequences, listed by entry. Tags and fused reporters are not part of them.
UniProt Q13200: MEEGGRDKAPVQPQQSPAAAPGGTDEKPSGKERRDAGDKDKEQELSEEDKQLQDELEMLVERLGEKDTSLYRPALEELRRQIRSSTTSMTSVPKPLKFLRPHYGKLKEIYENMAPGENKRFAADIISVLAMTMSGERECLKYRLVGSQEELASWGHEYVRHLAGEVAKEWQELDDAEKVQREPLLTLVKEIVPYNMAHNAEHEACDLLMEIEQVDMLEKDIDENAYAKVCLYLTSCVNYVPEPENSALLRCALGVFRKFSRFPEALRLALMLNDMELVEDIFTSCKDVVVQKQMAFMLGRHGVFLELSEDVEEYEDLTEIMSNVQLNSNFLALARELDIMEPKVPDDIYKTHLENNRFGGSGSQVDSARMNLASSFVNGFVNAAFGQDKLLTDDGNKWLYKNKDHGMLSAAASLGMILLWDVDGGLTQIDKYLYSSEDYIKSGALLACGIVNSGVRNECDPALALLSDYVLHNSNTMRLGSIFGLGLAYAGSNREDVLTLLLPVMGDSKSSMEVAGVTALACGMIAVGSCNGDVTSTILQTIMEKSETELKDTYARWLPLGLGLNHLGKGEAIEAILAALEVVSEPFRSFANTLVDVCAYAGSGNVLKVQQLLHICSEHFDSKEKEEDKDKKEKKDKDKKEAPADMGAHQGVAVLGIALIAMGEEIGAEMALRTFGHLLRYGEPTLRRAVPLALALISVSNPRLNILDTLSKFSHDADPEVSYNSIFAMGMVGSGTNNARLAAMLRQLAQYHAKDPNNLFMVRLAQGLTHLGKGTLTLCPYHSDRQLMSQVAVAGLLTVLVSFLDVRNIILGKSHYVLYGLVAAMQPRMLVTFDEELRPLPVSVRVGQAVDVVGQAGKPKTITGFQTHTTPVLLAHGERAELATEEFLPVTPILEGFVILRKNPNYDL

binding: binds
B1: USP15 catalytic USP domain (domain or fragment, UniProt Q9Y4E8 289-933)
chain: CGLSNLGNTCFMNSAIQCLSNTPPLTEYFLNDKYQEELNFDNPLGMRGEIAKSYAELIKQMWSGKFSYVTPRAFKTQVGRFAPQFSGYQQQDCQELLAFLLDGLHEDLNRIRKKPYIQLKDADGRPDKVVAEEAWENHLKRNDSIIVDIFHGLFKSTLVCPECAKISVTFDPFCYLTLPLPMKKERTLEVYLVRMDPLTKPMQYKVVVPKIGNILDLCTALSALSGIPADKMIVTDIYNHRFHRIFAMDENLSSIMERDDIYVFEININRTEDTEHVIIPVCLREKFRHSSYTHHTGSSLFGQPFLMAVPRNNTEDKLYNLLLLRMCRYVKISTETEETEGSLHCCKDQNINGNGPNGIHEEGSPSEMETDEPDDESSQDQELPSENENSQSEDSVGGDNDSENGLCTEDTCKGQLTGHKKRLFTFQFNNLGNTDINYIKDDTRHIRFDDRQLRLDERSFLALDWDPDLKKRYFDENAAEDFEKHESVEYKPPKKPFVKLKDCIELFTTKEKLGAEDPWYCPNCKEHQQATKKLDLWSLPPVLVVHLKRFSYSRYMRDKLDTLVDFPINDLDMSEFLINPNAGPCRYNLIAVSNHYGGMGGGHYTAFAKNKDDGKWYYFDDSSVSTASEDQIVSKAAYVLFYQRQ

binding: binds
B2: recombinant full-length USP15 (enzyme, UniProt Q9Y4E8 1-981)
chain: MAEGGAADLDTQRSDIATLLKTSLRKGDTWYLVDSRWFKQWKKYVGFDSWDKYQMGDQNVYPGPIDNSGLLKDGDAQSLKEHLIDELDYILLPTEGWNKLVSWYTLMEGQEPIARKVVEQGMFVKHCKVEVYLTELKLCENGNMNNVVTRRFSKADTIDTIEKEIRKIFSIPDEKETRLWNKYMSNTFEPLNKPDSTIQDAGLYQGQVLVIEQKNEDGTWPRGPSTPKSPGASNFSTLPKISPSSLSNNYNNMNNRNVKNSNYCLPSYTAYKNYDYSEPGRNNEQPGLCGLSNLGNTCFMNSAIQCLSNTPPLTEYFLNDKYQEELNFDNPLGMRGEIAKSYAELIKQMWSGKFSYVTPRAFKTQVGRFAPQFSGYQQQDCQELLAFLLDGLHEDLNRIRKKPYIQLKDADGRPDKVVAEEAWENHLKRNDSIIVDIFHGLFKSTLVCPECAKISVTFDPFCYLTLPLPMKKERTLEVYLVRMDPLTKPMQYKVVVPKIGNILDLCTALSALSGIPADKMIVTDIYNHRFHRIFAMDENLSSIMERDDIYVFEININRTEDTEHVIIPVCLREKFRHSSYTHHTGSSLFGQPFLMAVPRNNTEDKLYNLLLLRMCRYVKISTETEETEGSLHCCKDQNINGNGPNGIHEEGSPSEMETDEPDDESSQDQELPSENENSQSEDSVGGDNDSENGLCTEDTCKGQLTGHKKRLFTFQFNNLGNTDINYIKDDTRHIRFDDRQLRLDERSFLALDWDPDLKKRYFDENAAEDFEKHESVEYKPPKKPFVKLKDCIELFTTKEKLGAEDPWYCPNCKEHQQATKKLDLWSLPPVLVVHLKRFSYSRYMRDKLDTLVDFPINDLDMSEFLINPNAGPCRYNLIAVSNHYGGMGGGHYTAFAKNKDDGKWYYFDDSSVSTASEDQIVSKAAYVLFYQRQDTFSGTGFFPLDRETKGASAATGIPLESDEDSNDNDNDIENENCMHTN

Reference: doi:10.1101/2025.08.13.670075
